The values that follow come from publication doi:10.1101/2023.03.22.533738.

The chains behind the UniProt entries cited, without tags or fusion partners.
UniProt Q13164: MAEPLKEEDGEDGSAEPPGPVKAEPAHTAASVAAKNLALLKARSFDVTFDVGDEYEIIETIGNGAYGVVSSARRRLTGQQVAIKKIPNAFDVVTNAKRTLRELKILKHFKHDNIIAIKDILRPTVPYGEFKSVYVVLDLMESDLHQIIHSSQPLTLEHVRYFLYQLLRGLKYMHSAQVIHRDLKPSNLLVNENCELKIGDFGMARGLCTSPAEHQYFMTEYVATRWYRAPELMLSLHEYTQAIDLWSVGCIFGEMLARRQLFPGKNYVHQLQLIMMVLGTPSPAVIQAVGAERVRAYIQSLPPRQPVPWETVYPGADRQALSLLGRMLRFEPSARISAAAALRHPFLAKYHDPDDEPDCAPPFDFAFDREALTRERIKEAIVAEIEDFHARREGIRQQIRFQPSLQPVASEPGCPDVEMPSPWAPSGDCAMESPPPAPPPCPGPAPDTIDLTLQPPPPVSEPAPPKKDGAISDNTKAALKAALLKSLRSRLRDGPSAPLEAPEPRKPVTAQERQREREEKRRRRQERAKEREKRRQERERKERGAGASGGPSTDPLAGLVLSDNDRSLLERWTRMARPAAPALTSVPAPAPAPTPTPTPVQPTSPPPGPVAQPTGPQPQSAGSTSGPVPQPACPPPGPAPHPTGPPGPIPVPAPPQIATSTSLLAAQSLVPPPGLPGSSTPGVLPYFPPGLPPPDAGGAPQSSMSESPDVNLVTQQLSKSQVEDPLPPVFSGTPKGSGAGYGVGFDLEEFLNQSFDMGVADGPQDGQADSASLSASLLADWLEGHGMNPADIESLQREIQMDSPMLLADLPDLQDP
UniProt Q14790: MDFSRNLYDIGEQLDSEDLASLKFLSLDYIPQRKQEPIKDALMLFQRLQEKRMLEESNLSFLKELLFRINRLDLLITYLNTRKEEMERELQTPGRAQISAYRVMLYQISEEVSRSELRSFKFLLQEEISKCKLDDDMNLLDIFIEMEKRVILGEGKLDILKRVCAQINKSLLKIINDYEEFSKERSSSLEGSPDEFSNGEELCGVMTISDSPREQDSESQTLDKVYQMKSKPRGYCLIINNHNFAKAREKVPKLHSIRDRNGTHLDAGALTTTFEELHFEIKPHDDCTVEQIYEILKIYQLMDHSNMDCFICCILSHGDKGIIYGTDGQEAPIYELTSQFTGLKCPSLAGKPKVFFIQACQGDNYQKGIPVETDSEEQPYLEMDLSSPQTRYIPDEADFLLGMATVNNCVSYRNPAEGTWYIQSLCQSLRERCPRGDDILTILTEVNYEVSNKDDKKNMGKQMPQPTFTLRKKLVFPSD

Holding throughout (assay): co-IP
For experiment [1], the target named is T1, FLAG-tagged TP53INP2 (human, wild type) (human) (UniProt Q8IXH6).
T1 sequence: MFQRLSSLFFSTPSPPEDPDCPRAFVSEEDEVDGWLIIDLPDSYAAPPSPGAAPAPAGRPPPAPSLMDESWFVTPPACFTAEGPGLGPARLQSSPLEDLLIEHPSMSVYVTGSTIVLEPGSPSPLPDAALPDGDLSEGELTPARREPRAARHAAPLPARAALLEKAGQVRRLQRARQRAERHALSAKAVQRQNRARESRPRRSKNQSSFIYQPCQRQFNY

The target of experiment [2] is MAP kinase ERK5 (endogenous) (human (endogenous in Ishikawa)) (UniProt Q13164).
Experiment [3] deals with GST-tagged human ERK5 (WT) (human) (UniProt Q13164).

No constants are given. Whether binding was seen depends on the method and setting. In cells and extracts the contact can be indirect. Some results given as binding are weak or reduced against the parent protein; the word gives no strength. For part of these data: Tags and fused reporters may be left off the sequences shown.

In the case of “Caspase-8 (from UniProt Q14790 1-479) (enzyme)”, the binding result in experiment [1] is “binds”.

B1: TP53INP2 (endogenous) (protein, UniProt Q8IXH6 1-220)
chain: MFQRLSSLFFSTPSPPEDPDCPRAFVSEEDEVDGWLIIDLPDSYAAPPSPGAAPAPAGRPPPAPSLMDESWFVTPPACFTAEGPGLGPARLQSSPLEDLLIEHPSMSVYVTGSTIVLEPGSPSPLPDAALPDGDLSEGELTPARREPRAARHAAPLPARAALLEKAGQVRRLQRARQRAERHALSAKAVQRQNRARESRPRRSKNQSSFIYQPCQRQFNY
As for B1, the binding result in experiment [2] is reported as “binds”.

B2: FLAG-tagged TP53INP2 (human, wild type) (protein, UniProt Q8IXH6 1-220)
chain: MFQRLSSLFFSTPSPPEDPDCPRAFVSEEDEVDGWLIIDLPDSYAAPPSPGAAPAPAGRPPPAPSLMDESWFVTPPACFTAEGPGLGPARLQSSPLEDLLIEHPSMSVYVTGSTIVLEPGSPSPLPDAALPDGDLSEGELTPARREPRAARHAAPLPARAALLEKAGQVRRLQRARQRAERHALSAKAVQRQNRARESRPRRSKNQSSFIYQPCQRQFNY
As to B2, the binding result in experiment [3] was “binds”.
